The data set is described as follows: ELISA for serum IgG antibodies against antigens, peptides, enzymes, receptors in patients with autism and controls. Details: species or system human. The conditions noted are these: Table 5, cut-off of 2 standard deviations above the mean of controls; for Percent Elevation of IgG Antibody Levels, Patients: children with autism.

The text below walks through data of patent publication US7252957B2, “Identification of etiology of autism” (Immunosciences Lab., Inc., priority 2004, dated 2007).

On to `CC[C@H](C)[C@H](NC(=O)[C@H](CC(=O)O)NC(=O)[C@H](CC(C)C)NC(=O)[C@H](Cc1c[nH]cn1)NC(=O)[C@@H]1CSSC[C@H](N)C(=O)N[C@@H](CO)C(=O)N[C@H]2CSSC[C@H](NC(=O)[C@H](CCC(=O)O)NC(=O)[C@H](CCCCN)NC(=O)[C@H](CC(=O)O)NC(=O)[C@H](CCSC)NC(=O)[C@H](CC(C)C)NC(=O)[C@H](CO)NC(=O)[C@H](CO)NC2=O)C(=O)N[C@@H](C(C)C)C(=O)N[C@@H](Cc2ccc(O)cc2)C(=O)N[C@@H](Cc2ccccc2)C(=O)N1)C(=O)N[C@H](C(=O)N[C@@H](Cc1c[nH]c2ccccc12)C(=O)O)[C@@H](C)CC` [Endothelin], for which the “Percent Elevation of IgG Antibody Levels, Patients” value (shortened to “Percent Elevation … Patients”) was found to be 35% and the “Percent Elevation of IgG Antibody Levels, Controls” value (“Percent Elevation … Controls” below) was found to be 2%.

Consider `CC[C@H](C)[C@H](NC(=O)[C@@H]1CCCN1C(=O)[C@@H](NC(=O)[C@@H](N)Cc1ccccc1)C(C)C)C(=O)N[C@@H](Cc1ccccc1)C(=O)N[C@H](C(=O)N[C@@H](Cc1ccc(O)cc1)C(=O)NCC(=O)N[C@@H](CCC(=O)O)C(=O)N[C@@H](CC(C)C)C(=O)N[C@@H](CCC(N)=O)C(=O)N[C@@H](CCCNC(=N)N)C(=O)N[C@@H](CCSC)C(=O)N[C@@H](CCC(N)=O)C(=O)N[C@@H](CCC(=O)O)C(=O)N[C@@H](CCCCN)C(=O)N[C@@H](CCC(=O)O)C(=O)N[C@@H](CCCNC(=N)N)C(=O)N[C@@H](CC(N)=O)C(=O)N[C@@H](CCCCN)C(=O)NCC(=O)N[C@@H](CCC(N)=O)C(=O)O)[C@@H](C)O` [Motilin], for which the “Percent Elevation … Patients” value is reported as 52% and the “Percent Elevation … Controls” value is recorded as 14%.

As to `CC[C@H](C)[C@@H]1NC(=O)[C@H](Cc2ccc(O)cc2)NC(=O)[C@@H](N)CSSC[C@@H](C(=O)N2CCC[C@H]2C(=O)N[C@@H](CC(C)C)C(=O)NCC(N)=O)NC(=O)[C@H](CC(N)=O)NC(=O)[C@H](CCC(N)=O)NC1=O` [Oxytocin], the “Percent Elevation … Patients” value was determined as 32% and the “Percent Elevation … Controls” value is 6%.

For the compound `NCCc1c[nH]c2ccc(O)cc12` [Serotonin], the “Percent Elevation … Patients” value is on record as 30% and the “Percent Elevation … Controls” value is 6%.

On to Amyloid β, for which the “Percent Elevation … Patients” value is 23% and the “Percent Elevation … Controls” value was determined as 1%.

Consider B-Endorphin, for which the “Percent Elevation … Patients” value is on record as 36% and the “Percent Elevation … Controls” value came out at 5%.

Regarding CD69 (MECEKNLYWICNKPYK), the “Percent Elevation … Patients” value is 36% and the “Percent Elevation … Controls” value came to 6%.

“Calreticullin (EQFLDGDGWTSRWIESGLQTSQ; synthetically prepared peptide sequence)”: the “Percent Elevation … Patients” value is 30% and the “Percent Elevation … Controls” value amounted to 1%.

Casein: the “Percent Elevation … Patients” value stood at 42% and the “Percent Elevation … Controls” value is given as 10%.

Take Chymotrypsin: the “Percent Elevation … Patients” value was found to be 48% and the “Percent Elevation … Controls” value was 8%.

For the compound DPPI, the “Percent Elevation … Patients” value was 56% and the “Percent Elevation … Controls” value is 14%.

For Pepsin, the “Percent Elevation … Patients” value is recorded as 38% and the “Percent Elevation … Controls” value was determined as 4%.

Secretin: the “Percent Elevation … Patients” value is on record as 52% and the “Percent Elevation … Controls” value is recorded as 12%.

Tropomyosin: the “Percent Elevation … Patients” value was found to be 36% and the “Percent Elevation … Controls” value worked out at 8%.

With Trypsin, the “Percent Elevation … Patients” value is 44% and the “Percent Elevation … Controls” value is given as 6%.

Consider Vasoactive Intestinal peptide, for which the “Percent Elevation … Patients” value was 48% and the “Percent Elevation … Controls” value amounted to 8%.

As to streptokinase [SK], the “Percent Elevation … Patients” value is listed as 18% and the “Percent Elevation … Controls” value is given as 2%.
